From PubChem BioAssay AID2685 (National Center for Advancing Translational Sciences (NCATS), 2010)
The other results are listed elsewhere or left out. Shown are side measurements of this screen, not its main read-out; they come without a call. The list favours compounds with an active or inconclusive main result. Words in brackets tell the shape of the fitted curve; partial curves, single points and poor fits give uncertain potencies.

Test: qHTS Assay for Lipid Storage Modulators in Drosophila S3 Cells;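 on cell number change: cells counted by Cell Tracker Red CMTPX staining in the red channel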
Conditions: BODIPY lipid droplet fluorescence, 18-24 h; for cell number change: measured here: cell count max response, cells fed with added oleic acid
How it was run: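 Drosophila S3 cells loaded with oleic acid (400 uM, as added) and compounds at several concentrations; lipid droplets imaged by 488-nm laser-scanning cytometry, 500–530 nm intensity and object ratio to cell channel. Percent activity normalized to 20 uM Triacsin C.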

[1] = measured here: lipid fluorescence (Fed channel) AC50, cells fed with added oleic acid
[2] = measured here: cell number channel AC50, cells fed with added oleic acid

Row | SMILES | cell number change [%] | AC50 [1] | AC50 [2]
1 | COC(=O)c1cncc(O)c1 | 6.92 | 29.1 µM [falling, single point] | 
2 | CC1(C)CC2CC(C)(CN2CC(O)c2ccccc2)C1 (stereo not given) | 2.84 |  | 
3 | Cc1ccc(OS(=O)(=O)c2cn(C)c(=O)n(C)c2=O)cc1C | -8 | 6.51 µM [rising, single point] | 
4 | Cc1ccc(NC(=O)NC(=O)N(C2CCCCC2)S(=O)(=O)c2ccccc2)cc1 | 16.7 |  | 2.31 µM [rising, partial curve]
5 | Cc1[nH]c2ccc(Br)cc2c(=O)c1CN1CCOCC1 | -2 | 0.0291 µM [falling, full curve, poor fit] | 
6 | NS(=O)(=O)c1cccnc1Nc1cccc(Cl)c1Cl | -15.9 | 2.06 µM [falling, full curve, poor fit] | 
7 | O=C(O)c1cn[nH]c1-n1cnnn1 | -47.8 | 1.3 µM [falling, single point] | 0.291 µM [falling, full curve]
8 | O=c1[nH]c(-c2ccccc2O)nc2c1CCCC2 | 3.49 | 0.58 µM [falling, partial curve] | 
9 | COc1ccc(S(=O)(=O)c2cnc3ccccc3n2)cc1 | -1.22 |  | 
10 | Cn1c(C(=O)OCC(=O)NCc2cccs2)cc2sccc21 | -37.8 |  | 32.6 µM [falling, single point]
11 | CCn1c(CNC(=O)c2cccs2)nnc1SCC(=O)Nc1cc(Cl)ccc1C | -16.2 | 0.0146 µM [falling, full curve, poor fit] | 
12 | COc1cc(C(=O)NCCc2cn3ccccc3n2)cc(OC)c1OC | 132 | 14.6 µM [rising, partial curve] | 14.6 µM [rising, partial curve]
13 | Cc1ccc(-n2nc3c(N4CCC(C(=O)NCc5cccc(F)c5)CC4)nnc(C)c3c2C)cc1 |  | 5.17 µM [rising, single point] | 6.51 µM [rising, single point]
14 | COc1ccc(NCCC(O)c2ccc(Cl)cc2)cc1 (stereo not given) | 16.2 |  | 
15 | CSc1ncccc1C(=O)Nc1ccc2c(c1)OCO2 | -12.9 | 11.6 µM [rising, partial curve] | 
16 | COc1cccc(C2C=C(c3ccc(Br)s3)Nc3ncnn32)c1OC (stereo not given) |  | 0.103 µM [rising, full curve, poor fit] | 1.03 µM [rising, partial curve]
17 | Cc1cccc2cc(C(c3nnnn3CC3CCCO3)N3CCc4ccccc4C3)c(=O)[nH]c12 (stereo not given) | 42.4 | 0.461 µM [rising, partial curve] | 6.51 µM [rising, partial curve]
18 | Cc1cccc(NC(=S)NC(=O)/C=C/c2ccccc2)n1 | -36.3 |  | 
19 | CC(=O)Nc1cc(C(=O)N2CCCC2)ccc1Sc1ccc(C)cc1 | -1.05 |  | 
20 | CCN1CCc2c(sc(NC(=O)c3ccc(S(=O)(=O)N4CCCCCC4)cc3)c2C(=O)NC)C1 | -45.8 | 2.91 µM [falling, full curve] | 3.26 µM [falling, full curve]

Among those listed so far, 6 contain four or more nitrogen atoms:
Row | SMILES | cell number change [%] | AC50 [1] | AC50 [2]
7 | O=C(O)c1cn[nH]c1-n1cnnn1 | -47.8 | 1.3 µM [falling, single point] | 0.291 µM [falling, full curve]
11 | CCn1c(CNC(=O)c2cccs2)nnc1SCC(=O)Nc1cc(Cl)ccc1C | -16.2 | 0.0146 µM [falling, full curve, poor fit] | 
13 | Cc1ccc(-n2nc3c(N4CCC(C(=O)NCc5cccc(F)c5)CC4)nnc(C)c3c2C)cc1 |  | 5.17 µM [rising, single point] | 6.51 µM [rising, single point]
16 | COc1cccc(C2C=C(c3ccc(Br)s3)Nc3ncnn32)c1OC (stereo not given) |  | 0.103 µM [rising, full curve, poor fit] | 1.03 µM [rising, partial curve]
17 | Cc1cccc2cc(C(c3nnnn3CC3CCCO3)N3CCc4ccccc4C3)c(=O)[nH]c12 (stereo not given) | 42.4 | 0.461 µM [rising, partial curve] | 6.51 µM [rising, partial curve]
20 | CCN1CCc2c(sc(NC(=O)c3ccc(S(=O)(=O)N4CCCCCC4)cc3)c2C(=O)NC)C1 | -45.8 | 2.91 µM [falling, full curve] | 3.26 µM [falling, full curve]

Some entries already given with just cell number change [%] and AC50 [1].
Row	SMILES	cell number change [%]	AC50 [1]
6	NS(=O)(=O)c1cccnc1Nc1cccc(Cl)c1Cl	-15.9	2.06 µM [falling, full curve, poor fit]
7	O=C(O)c1cn[nH]c1-n1cnnn1	-47.8	1.3 µM [falling, single point]

The listing continues.

Row | SMILES | cell number change [%] | AC50 [1] | AC50 [2]
21 | C/C(=N\NC(=O)c1sccc1C)c1cccnc1 | -39.6 |  | 0.00517 µM [falling, full curve, poor fit]
22 | CCc1noc(C)c1C(=O)N(CCOC)c1c(N)n(CC(C)C)c(=O)[nH]c1=O | -17.3 | 0.708 µM [rising, full curve, poor fit] | 
23 | CCC1CCCCN1C(=O)CSc1nc(N)cc(=O)[nH]1 (stereo not given) | -20 |  | 
24 | COc1ccc(NC(=O)CCS(=O)(=O)c2ccc3nc(C)sc3c2)cc1OC | 4.03 | 29.1 µM [rising, single point] | 
25 | COc1ccc(NC(=O)COC(=O)Cn2cnc3ccccc3c2=O)c(OC)c1 | -2.61 | 0.092 µM [rising, full curve, poor fit] | 
26 | C/C(=N\NC(=O)c1cc(-c2ccc(Br)s2)[nH]n1)c1ccncc1 | 10.5 | 6.31 µM [rising, single point] | 
27 | Nc1nc(N)c2sc3nc(C(F)(F)F)cc(C(F)(F)F)c3c2n1 | -34.6 | 32.6 µM [falling, single point] | 32.6 µM [falling, single point]
28 | COc1ccc(N2CC(NS(=O)(=O)c3cccs3)CC2=O)cc1OC (stereo not given) | -19.7 |  | 0.326 µM [falling, full curve, poor fit]
29 | CC(=O)c1ccc(OCc2cc(=O)n3ccsc3n2)cc1 | 33.4 | 29.1 µM [rising, single point] | 
30 | CCC(=O)N(CC)C1=C(O)c2ccccc2C(=O)C1=O | -44.7 | 18.4 µM [falling, partial curve] | 18.4 µM [falling, single point]
31 | COc1cc(CNC(C)C)c(Br)cc1OC1CCCC1 |  |  | 0.13 µM [rising, full curve, poor fit]
32 | CCC1CCCCN1C(=O)COC(=O)CSc1ccc(C(N)=O)cc1[N+](=O)[O-] (stereo not given) | -6.52 | 0.116 µM [falling, full curve, poor fit] | 0.164 µM [falling, full curve, poor fit]
33 | COC(=O)Cn1nc(-c2ccccc2)c2ccccc2c1=O | 2.45 | 1.03 µM [rising, single point] | 
34 | O=C(Cc1ccccc1)NNS(=O)(=O)c1ccccc1[N+](=O)[O-] | -7.14 | 29.1 µM [rising, single point] | 
35 | CCCCOc1ccc(C(=O)NCC(=O)NC2CC2)cc1 |  | 0.116 µM [rising, full curve, poor fit] | 2.31 µM [rising, partial curve]
36 | Cc1nc2ccc([N+](=O)[O-])cc2c(=O)n1Cc1ccc(F)cc1 | -16.8 | 18.4 µM [falling, partial curve] | 
37 | COc1ccc(-c2nnn(CC(=O)N(CC(=O)NCCC(C)C)Cc3cccs3)n2)cc1OC | -19.8 |  | 0.164 µM [falling, partial curve]
38 | O=[N+]([O-])c1ccc(S(=O)(=O)N/N=C/c2ccc3c(c2)OCO3)cc1 | 16.3 | 29.1 µM [rising, single point] | 
39 | O=C(CSc1nc2ccc(Nc3nc(N4CCOCC4)nc(N4CCOCC4)n3)cc2s1)N1CCOCC1 | 19.9 |  | 
40 | C/C(=N\NC(=O)c1nn(C)cc1Cl)c1ccncc1 | -7.26 | 2.06 µM [rising, partial curve] | 

Row | SMILES | cell number change [%] | AC50 [1] | AC50 [2]
41 | CCc1ccc(/C=N/NC(=O)c2nnn(-c3nonc3N)c2C(C)C)cc1 | -12.4 |  | 5.17 µM [falling, single point]
42 | O=C(Nc1cccc2ccccc12)N1CCN(c2ccc(F)cc2)CC1 | 18.7 | 8.2 µM [rising, partial curve] | 
43 | CN(C)c1cc(Nc2cccc(O)c2)c([N+](=O)[O-])c2nonc12 | 28.8 | 29.1 µM [rising, single point] | 
44 | COc1cc(-c2ccc3c(=O)c4ccccc4n(C)c3c2)cc(OC)c1OC | -13.5 | 7.31 µM [falling, single point] | 
45 | COCCCNc1nc2nonc2nc1NCCSC | 9.14 |  | 
46 | O=C(COC(=O)c1ccccc1C(=O)c1ccccc1)NCCc1ccc(Cl)cc1Cl | -10.9 | 13 µM [falling, single point] | 
47 | O=C(Nc1ccccc1)c1ccc(-c2ccccc2Cl)o1 | -2.77 | 18.4 µM [rising, partial curve] | 
48 | CCC1CCCCN1CCCNC(=O)CCC(=O)N1CC(C)Oc2ccccc21 (stereo not given) |  | 4.11 µM [falling, single point] | 
49 | COC(=O)Cn1c(=NC(=O)c2cc(-c3cccs3)nc3ccccc23)sc2cc(S(N)(=O)=O)ccc21 | -0.331 |  | 
50 | CCOC(=O)c1[nH]c(C)c(C(=O)OCC(=O)N2CCc3ccccc32)c1C |  | 0.164 µM [rising, full curve, poor fit] | 2.06 µM [rising, single point]
51 | CC1=NC(=O)C(N=Nc2cccc(C(=O)O)c2)N1c1ccccc1 (stereo not given) | -32.6 |  | 0.13 µM [falling, full curve, poor fit]
52 | Cc1ccc(/C=c2\sc3n(c2=O)CN(c2ccc(Br)cc2)CN=3)o1 | -32.6 |  | 29.1 µM [falling, partial curve, poor fit]
53 | O=C(Nn1c(C2CCCCC2)nc2ccccc2c1=O)c1cc(Cl)ccc1[N+](=O)[O-] | 37.4 |  | 20.6 µM [rising, partial curve, poor fit]
54 | Cc1cccc(N(C(=O)Cn2nnc(-c3ccc(F)cc3)n2)C(C(=O)NC(C)(C)C)c2ccncc2)c1 (stereo not given) | -13.5 | 32.6 µM [falling, single point] | 
55 | CCOC(=O)C1CCCN(C(=O)COC(=O)C2=COCCO2)C1 (stereo not given) | 0.971 | 2.06 µM [falling, partial curve] | 
56 | Cc1[nH]c2ccccc2c1C1=CN2CCS(=O)(=O)N=C2S1 |  | 0.146 µM [rising, single point] | 6.51 µM [rising, single point]
57 | COc1cccc(-c2c(C(=O)N/N=C/c3ccoc3)nnn2-c2nonc2N)c1 | 3.44 | 29.1 µM [falling, single point] | 
58 | Cc1nc(NCc2cccnc2)c2c3c(sc2n1)CC(C)CC3 (stereo not given) |  | 0.164 µM [rising, full curve] | 0.651 µM [rising, partial curve]
59 | O=C(NCc1ccccc1F)C1CCN(S(=O)(=O)c2ccccc2)CC1 | 9.01 |  | 
60 | CCC(C(=O)Nc1ccc(C(=O)Nc2ccccc2C(=O)O)cc1)c1ccccc1 (stereo not given) | -6.23 | 29.1 µM [rising, single point] | 
